{"sequences": {"note": "The chains behind the UniProt entries cited, without tags or fusion partners.", "UniProt P15056, whole entry": "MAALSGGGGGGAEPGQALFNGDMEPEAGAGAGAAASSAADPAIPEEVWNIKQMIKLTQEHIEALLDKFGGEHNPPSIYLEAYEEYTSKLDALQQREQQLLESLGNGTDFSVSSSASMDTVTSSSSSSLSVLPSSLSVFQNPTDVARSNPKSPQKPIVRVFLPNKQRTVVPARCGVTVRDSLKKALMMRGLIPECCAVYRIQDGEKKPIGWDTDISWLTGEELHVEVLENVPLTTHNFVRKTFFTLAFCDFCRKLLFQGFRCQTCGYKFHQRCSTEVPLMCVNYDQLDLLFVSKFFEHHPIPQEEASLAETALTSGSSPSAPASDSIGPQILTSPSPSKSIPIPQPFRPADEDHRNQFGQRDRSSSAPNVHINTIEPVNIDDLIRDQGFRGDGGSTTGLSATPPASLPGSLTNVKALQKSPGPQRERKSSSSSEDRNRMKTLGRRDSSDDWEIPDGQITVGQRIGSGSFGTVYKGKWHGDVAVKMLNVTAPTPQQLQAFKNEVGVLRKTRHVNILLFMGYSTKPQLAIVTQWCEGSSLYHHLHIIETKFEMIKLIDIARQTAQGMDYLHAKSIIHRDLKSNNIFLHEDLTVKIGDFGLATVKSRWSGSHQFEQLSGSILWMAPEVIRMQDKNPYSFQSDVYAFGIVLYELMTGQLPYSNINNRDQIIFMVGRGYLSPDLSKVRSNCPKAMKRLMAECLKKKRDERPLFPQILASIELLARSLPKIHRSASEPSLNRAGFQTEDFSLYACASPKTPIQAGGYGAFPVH"}, "source": "patent US11338012B2", "about": "“BRAF-based polypeptides for treatment of cancer” (UNIVERSITY OF THE SCIENCES, priority 2019, dated 2022)", "key": {"BRAF homodimers": {"biological_target": "T1, BRAF homodimers (Homo sapiens, UniProt P15056)", "T1 construct": "expressed in transfected cells; host or cells: HEK293", "assay": "Co-immunoprecipitation of BRAF homodimers with braftide treatment", "conditions": "50 μM added to HEK293 cell lysate, 90 min"}, "BRAF/CRAF heterodimers": {"biological_target": "T2, BRAF/CRAF heterodimers (Homo sapiens, UniProt P15056)", "T2 construct": "expressed in transfected cells; host or cells: HEK293", "assay": "Immunoblotting of HEK293 cells co-transfected with Flag-BRAF and MBP-CRAF", "type": "cell-based", "conditions": "100 μM, 4 hr; BRAF:CRAF 1:1, 1:2, 1:3"}, "[1]": {"system": "MAPK signaling in HEK293 cells overexpressing wild-type BRAF or BRAF^G469A", "assay": "Cell-based synergy assay of TAT-braftide with ATP-competitive inhibitors in HEK293 cells overexpressing BRAF^WT or BRAF^G469A", "conditions": "pre-treatment 75 μM for 2 h; similar pattern for BRAF^G469A", "method": "IC50 values were obtained from a dose-response curve (4-parameter logistic equation) in Origin, from three independent experiments. […] Western blots are representative of at least three independent experiments.\nCell lysates were subjected to immunoblotting for the indicated proteins.\nHEK293 cells were plated at one million cells per 2 mL :DMEM supplemented with 10% FBS and 1% L-glutarnine. These cells were incubated at 37° C. with 5% CO2 for 24 hours or until the cells reach a confluency of 40-60%. DNA (1-3 μg) was mixed with PEI-MAX in a 1:3 ratio in Opti-MEM at RT for ˜25 minutes and added onto the cells with fresh media. After 48 hrs, the cells were washed with cold PBS, harvested, lysed with 4% SDS and homogenized. […] The cells were then washed twice with PBS, lysed as above and quantified with the BCA protein assay. Equal amounts of cell lysates were loaded for immunoblotting and then probed for relevant proteins. […] Cells were washed twice with PBS and processed as above. Protein concentrations were determined with BCA assays for immunoblotting.\nThe efficacy of current ATP-competitive BRAF inhibitors is limited to BRAF^V600E that signals as a monomer."}}, "note": "Not every detail of the peptide structures is certain; ends, links or a residue may be inferred. Where no end group is shown, it is not given here."}
{"sequence": "TRHVNILLFM [braftide]", "values": [{"measurement": "formation of BRAF homodimers (co-IP of V5-tagged BRAF with FLAG-tagged BRAF)", "setting": "BRAF homodimers", "value": "decreased the formation of BRAF homodimers"}, {"measurement": "BRAF and CRAF protein levels and MAPK signaling", "setting": "BRAF/CRAF heterodimers", "value": "both BRAF and CRAF were degraded together with diminished MAPK signaling"}, {"measurement": "paradoxical effect caused by lower doses of dabrafenib", "setting": "[1]", "value": "abrogated the paradoxical effect"}]}
